Results deposited as PubChem BioAssay AID1259424 (University of Nebraska Medical Center, 2018).

Assay: 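Seek colon cancer survival genes behaving like KSR1, using a six-gene signature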 (primary screen)
Cells: human HCT116 colon cancer cells
Reagents: siRNA pool against human genes, 50 nM
Measurement: 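Log2 levels of six mRNAs (branched-DNA multiplex), adjusted by two reference genes and the non-targeting median, then scored against the average KSR1 knockdown pattern as Pearson r and euclidean distance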
Scale: mean correlation with KSR1 profile: higher = expression change more like KSR1 knockdown
The deposit covers about 14,000 reagents; below is a part drawn at random. 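Higher correlation or smaller distance means closer resemblance to KSR1 loss; control wells, including KSR1 knockdowns, recur on many plates.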 Some reagents were tested in more than one well and are listed for each. Further read-outs or replicates are left out here. The record does not give: the time to read-out.

gene | mean correlation with KSR1 profile
NBEAL1 (neurobeachin like 1) | 0.365
SAFB2 (scaffold attachment factor B2) | -0.244
UHRF2 (ubiquitin like with PHD and ring finger domains 2) | -0.37
ZP2 (zona pellucida glycoprotein 2) | -0.298
NRAS (NRAS proto-oncogene, GTPase) | 0.613
CEP152 (centrosomal protein 152) | -0.402
DYNLRB2 (dynein light chain roadblock-type 2) | 0.318
NEMF (nuclear export mediator factor) | -0.269
TPP2 (tripeptidyl peptidase 2) | 0.193
SLF2 (SMC5/6 complex localization factor 2) | -0.204
CTNND1 (catenin delta 1) | 0.0214
HSPE1 (heat shock protein family E (Hsp10) member 1) | 0.43
CNBP (CCHC-type zinc finger nucleic acid binding protein) | 0.044
PCDHGB7 (protocadherin gamma subfamily B, 7) | -0.22
ADRB2 (adrenoceptor beta 2) | 0.527
ADRB2 (adrenoceptor beta 2) | 0.359
MCOLN1 (mucolipin TRP cation channel 1) | -0.463
PPP1R14A (protein phosphatase 1 regulatory inhibitor subunit 14A) | 0.573
TBCD (tubulin folding cofactor D) | -0.413
NTRK1 (neurotrophic receptor tyrosine kinase 1) | 0.0166
KIAA0492 (retired record) | -0.0568
RBM4B (RNA binding motif protein 4B) | 0.613
ELOVL1 (ELOVL fatty acid elongase 1) | -0.302
MYH11 (myosin heavy chain 11) | 0.843
PTPRA (protein tyrosine phosphatase receptor type A) | -0.42
GPX3 (glutathione peroxidase 3) | 0.733
FANCM (FA complementation group M) | -0.839
TMA16 (translation machinery associated 16 homolog) | -0.116
PFKM (phosphofructokinase, muscle) | -0.321
MAP1LC3A (microtubule associated protein 1 light chain 3 alpha) | 0.102
KRT2 (keratin 2) | -0.183
NNAT (neuronatin) | -0.215
PTPRD (protein tyrosine phosphatase receptor type D) | 0.239
ZDBF2 (zinc finger DBF-type containing 2) | 0.674
LSS (lanosterol synthase) | 0.562
CCAR1 (cell division cycle and apoptosis regulator 1) | 0.545
PPP1R16A (protein phosphatase 1 regulatory subunit 16A) | -0.0878
MS4A3 (membrane spanning 4-domains A3) | 0.39
SLC13A3 | -0.447
ZNF384 (zinc finger protein 384) | -0.175
ABRACL (ABRA C-terminal like) | 0.447
ARHGEF6 (Rac/Cdc42 guanine nucleotide exchange factor 6) | -0.418
CALCR (calcitonin receptor) | 0.523
PAQR6 (progestin and adipoQ receptor family member 6) | 0.515
SGCG (sarcoglycan gamma) | -0.547
STAU1 (staufen double-stranded RNA binding protein 1) | 0.0878
GALNT14 (polypeptide N-acetylgalactosaminyltransferase 14) | -0.795
ANGPT1 (angiopoietin 1) | -0.411
TRAPPC2L (trafficking protein particle complex subunit 2L) | -0.192
FZD10 (frizzled class receptor 10) | 0.804

Reprinted from the listing, 4 entries:
gene | mean correlation with KSR1 profile
PPP1R16A (protein phosphatase 1 regulatory subunit 16A) | -0.0878
MS4A3 (membrane spanning 4-domains A3) | 0.39
SLC13A3 | -0.447
ZNF384 (zinc finger protein 384) | -0.175
